Reference: PubChem BioAssay AID2685 (National Center for Advancing Translational Sciences (NCATS), 2010)
This is one part of the list. Shown are side measurements of this screen, not its main read-out; they come without a call. The list favours compounds with an active or inconclusive main result. Words in brackets tell the shape of the fitted curve; partial curves, single points and poor fits give uncertain potencies.

Test: qHTS Assay for Lipid Storage Modulators in Drosophila S3 Cells;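 as to cell number change: cells counted by Cell Tracker Red CMTPX staining in the red channel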
Conditions: BODIPY lipid droplet fluorescence, 18-24 h; for cell number change: measured here: cell count max response, cells fed with added oleic acid
Summary of the method: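 Laser-scanning cytometry quantifies lipid droplet accumulation (500–530 nm total intensity; droplet/cell object ratio) in oleic acid-fed (400 uM added) Drosophila S3 cells treated with a concentration series. 20 uM Triacsin C defined 100% inhibition.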

[1] = measured here: lipid fluorescence (Fed channel) AC50, cells fed with added oleic acid
[2] = measured here: cell number channel AC50, cells fed with added oleic acid

| SMILES | cell number change [%] | AC50 [1] | AC50 [2] |
| --- | --- | --- | --- |
| CCCCC1CCC(/C(N)=N/O)CC1 (configuration not stated) | 9.29 | 29.1 µM [rising, single point] | – |
| CC(C)CCn1c(SCCc2ccccc2)nc2c1c(=O)[nH]c(=O)n2C | -33.3 | 0.82 µM [rising, full curve] | 0.517 µM [rising, full curve] |
| CCN(CC)Cc1c(C(=O)N/N=C/c2ccncc2)nnn1-c1nonc1N | -10.8 | – | – |
| Cc1ccc2oc(=O)n(CC(=O)O)c2c1 | -9.99 | 7.31 µM [rising, partial curve, poor fit] | – |
| CC(C)N(C)Cc1nnnn1CC(=O)NCCc1cccc(C(F)(F)F)c1 | -4.67 | 1.03 µM [falling, full curve] | – |
| CC(C)(CNC(=O)C1CCCN1C(=O)c1cccs1)N1CCOCC1 (configuration not stated) | – | 29.1 µM [falling, partial curve, poor fit] | – |
| COc1cccc(C(C(=O)NC2CCCCC2)N(Cc2ccco2)C(=O)c2ccccn2)c1 (configuration not stated) | -35.9 | 0.0731 µM [rising, partial curve, poor fit] | – |
| O=C(CC(C(=O)O)C1CCCO1)NCc1ccccc1 (configuration not stated) | -32.8 | 25.9 µM [falling, single point] | 29.1 µM [falling, single point] |
| CCNc1ccc2c(Cl)cc(=O)oc2c1 | – | – | 0.731 µM [falling, single point] |
| COc1ccccc1NC(=O)C(CCS(C)(=O)=O)N1C(=O)c2ccccc2C1=O (configuration not stated) | -8.91 | 20.6 µM [falling, partial curve] | – |
| COCCNC(=O)C(c1ccc(F)cc1)N(Cc1ccco1)C(=O)CCC(=O)Nc1nccs1 (configuration not stated) | -2.02 | 11.6 µM [rising, partial curve, poor fit] | 0.082 µM [rising, full curve, poor fit] |
| CC(C(=O)Oc1ccc2c(c1)OCO2)N1C(=O)c2ccccc2C1=O (configuration not stated) | 9.76 | – | 0.103 µM [rising, full curve, poor fit] |
| COC(=O)C1CCN(C(=O)COC(=O)CNC(=O)c2ccc(Cl)cc2Cl)CC1 | -6.81 | 0.82 µM [rising, full curve] | – |
| CCCOc1cccc(C(=O)N(Cc2ccc(OC)c(OC)c2)C2CCS(=O)(=O)C2)c1 (configuration not stated) | 63 | – | – |
| CCOc1cccc(C(=O)Nc2ccc(NC(=O)c3ccccc3)c(C)c2)c1 | -9.09 | – | – |
| O=c1[nH]c(=O)n(CCO)c2nnn(Cc3ccccc3)c12 | 7.1 | – | – |
| Cc1cccc(-c2noc(CN(C)C(=O)c3ccoc3C)n2)c1 | 19.3 | 29.1 µM [rising, single point] | – |
| Cc1ccc(C(=O)Nc2ccc(F)cc2)o1 | 10.9 | 0.13 µM [falling, full curve, poor fit] | – |
| CC1(C)Cc2ccccc2C(NNC(=O)c2ccccn2)=N1 | 29.6 | 0.58 µM [rising, full curve, poor fit] | – |
| Cc1occc1-c1nnc(SCC(=O)Nc2nc(C(C)(C)C)cs2)o1 | -74.5 | 7.31 µM [falling, partial curve] | 9.2 µM [falling, partial curve, poor fit] |

| SMILES | cell number change [%] | AC50 [1] | AC50 [2] |
| --- | --- | --- | --- |
| CCCC(=O)C1=C(N(C)c2ccccc2)CC(C)(C)C(C(=O)OC)C1=O (configuration not stated) | 27 | 29.1 µM [rising, single point] | – |
| CCOC(=O)c1c(C)c(C(=O)NCc2ccccn2)c(C)n1C | -14.2 | – | – |
| CCN(c1ccccc1)S(=O)(=O)c1ccc(C(=O)Nc2ccc(C)cn2)cc1 | 23.7 | – | – |
| CN(C)C(CN1C(=O)C2CC=CCC2C1=O)c1cn(C)c2ccccc12 (configuration not stated) | 2.52 | 29.1 µM [rising, single point] | – |
| C=CCN1C(=O)/C(=C\c2cccs2)C(C(=O)OC)=C1C | 52.7 | – | 18.4 µM [rising, single point] |
| OCCOCCOCCn1c2ccccc2c2ccccc21 | -11.9 | 5.8 µM [falling, full curve] | – |
| Cc1ccccc1Cn1cccc1/C=C1/C(=N)N2C=CSC2=NC1=O | – | – | 1.84 µM [rising, partial curve] |
| O=C(Nc1ccccc1C(=O)N1CCCCC1)c1ccco1 | 18.4 | – | – |
| COc1ccc(CN2C(=O)c3ccccc3C2=O)cc1C(=O)OC(C)C(=O)NC(N)=O (configuration not stated) | 19.1 | 13 µM [rising, partial curve] | – |
| CC(Sc1nc(NCc2ccccc2)nc(N(C)C)n1)C(=O)Nc1ccccc1 (configuration not stated) | -53.7 | 2.31 µM [falling, full curve] | 29.1 µM [falling, single point] |
| Cc1ccc2c(CC(=O)NCCc3ccc(S(N)(=O)=O)cc3)coc2c1 | -11 | 20.6 µM [falling, single point] | – |
| Cc1ccc2oc(=O)c3cnn(CC(=O)N4CCN(c5ccccc5)CC4)c3c2c1 | – | – | 0.00411 µM [rising, full curve, poor fit] |
| CCN1C(=O)[C@H]2[C@@H](c3ccc(Cl)cc3)N3C(=O)CN(CCOC)C(=O)[C@@]3(Cc3ccccc3)[C@H]2C1=O | 22.5 | 29.1 µM [rising, single point] | – |
| O=C(Cc1ccccc1)Nc1ccccc1C(=O)N1CCCCCC1 | 6.77 | 0.00461 µM [falling, full curve, poor fit] | 0.00461 µM [falling, full curve, poor fit] |
| CC(C)n1c(CSCc2ccc(Cl)cc2Cl)n[nH]c1=S | -9.17 | 0.731 µM [rising, full curve, poor fit] | 0.651 µM [rising, full curve, poor fit] |
| N/C(=N\OC(=O)CCCc1ccccc1)c1ccccc1 | 13.8 | – | – |
| O=C(NCc1ccccc1Cl)C1CCN(S(=O)(=O)N2CCCC2)CC1 | 7.95 | 0.651 µM [falling, single point] | – |
| Cc1cc(C)cc(NC(=O)N2CCCC2C(=O)Nc2ccc(-n3cnnn3)cc2)c1 (configuration not stated) | – | 6.51 µM [falling, single point] | – |
| Cc1ccc(-c2cc(C(=O)N/N=C/c3ccoc3)c3ccccc3n2)cc1 | -9.35 | – | – |
| O=C(CN(C(=O)c1csnn1)c1cccc(Cl)c1)NC1CCCCC1 | 17.9 | – | – |

Taken from above.
N/C(=N\OC(=O)CCCc1ccccc1)c1ccccc1 | cell number change [%]: 13.8
Cc1ccc2oc(=O)c3cnn(CC(=O)N4CCN(c5ccccc5)CC4)c3c2c1 | AC50 [2]: 0.00411 µM [rising, full curve, poor fit]
